{
  "source": "patent US11091462B2",
  "about": "“(Hetero)arylamide compound for inhibiting protein kinase activity” (Shenzhen TargetRx, Inc., priority 2017, dated 2021)",
  "test_system": "Ba/F3 Bcr-Abl^T315I cells",
  "assay": "Cytotoxicity experiment, Ba/F3 Bcr-Abl T315I cells (CellTiter-Glo)",
  "assay_type": "cell-based",
  "conditions": "IC50 of the Ba/F3 parent cells divided by the IC50 of Ba/F3 Bcr-Abl^T315I",
  "protocol": "Example 13: Cytotoxicity Experiment\nThe inhibitory effect of the Example compounds on the activity of Ba/F3 parent cell, Ba/F3 Bcr-Abl^T315I cell was examined.\n1. Preparation of cell plate: Ba/F3 parental cells, Ba/F3 Bcr-Abl^T315I cells were seeded in 96-well plates, and 8 ng/ml IL-3 was added to Ba/F3 parental cells. The cell plates were placed in carbon dioxide culture and incubated overnight.\n2. Preparation of test compounds: The test compounds were dissolved in DMSO and subjected to a 3.16-fold gradient dilution in triplicate, 9 concentrations were obtained, starting from the concentration of 10 μM.\n3. Treatment of Cells with compounds: Compounds at various concentrations were transferred to cell plates. The cell plates were incubated in a carbon dioxide incubator for 3 days.\n4. Detection: CellTiter-Glo4 reagent was added to the cell plates, which were incubated for 30 minutes at room temperature to stabilize the luminescence signal. Readings were performed using a PerkinElmer Envision multi-label analyzer.",
  "note": "Some of these results come from one statement about several compounds together.",
  "data": [
    {"smiles": "O=C(Nc1ccc(OC(F)(F)Cl)cc1)c1cnc(N2CC[C@@H](F)C2)c(-c2cnccn2)c1", "note": "[Example 7, (R)-6-(3-fluoropyrrolidin-1-yl)-5-(pyrazin-2-yl)-N-(4-(chlorodifluoromethoxy)phenyl)nicotinamide]", "values": [
      {"measurement": "therapeutic index", "result": "greater than 200"}
    ]}
  ]
}
